Measured values reported in article PMC8635973.
No constants are given. Whether binding was seen depends on the method and setting. In cells and extracts the contact can be indirect. Some results given as binding are weak or reduced against the parent protein; the word gives no strength.

Chains of the proteins cited; added tags and fusions are not shown. Lines headed by an entry give the natural chain unless they say otherwise; changes in a name come on top.
UniProt Q9Y5K5: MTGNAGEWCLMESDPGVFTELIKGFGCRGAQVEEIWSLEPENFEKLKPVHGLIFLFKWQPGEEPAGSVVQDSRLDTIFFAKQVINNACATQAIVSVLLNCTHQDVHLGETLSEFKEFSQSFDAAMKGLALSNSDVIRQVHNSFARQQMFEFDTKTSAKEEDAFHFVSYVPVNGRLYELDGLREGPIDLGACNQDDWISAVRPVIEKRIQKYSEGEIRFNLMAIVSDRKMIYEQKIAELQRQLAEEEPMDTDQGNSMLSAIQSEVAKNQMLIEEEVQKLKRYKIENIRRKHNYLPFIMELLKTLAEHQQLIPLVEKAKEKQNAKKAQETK
UniProt P54727: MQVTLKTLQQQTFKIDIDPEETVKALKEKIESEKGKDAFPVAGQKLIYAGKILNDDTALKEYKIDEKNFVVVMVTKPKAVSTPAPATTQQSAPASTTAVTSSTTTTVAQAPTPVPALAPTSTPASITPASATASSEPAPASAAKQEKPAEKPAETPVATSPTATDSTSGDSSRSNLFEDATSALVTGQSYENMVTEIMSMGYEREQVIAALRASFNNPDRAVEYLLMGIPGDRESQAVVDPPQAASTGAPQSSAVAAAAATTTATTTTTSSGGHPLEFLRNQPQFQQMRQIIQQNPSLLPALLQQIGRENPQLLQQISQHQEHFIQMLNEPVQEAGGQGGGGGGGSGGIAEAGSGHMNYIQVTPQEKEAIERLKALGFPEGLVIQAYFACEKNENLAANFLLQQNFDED

Molecular target: Flag-GFP-UCH37(C88A) (UniProt Q9Y5K5)
Assay: co-IP; anti-Flag agarose, 4 °C overnight, low salt lysis buffer (20 mM HEPES pH 7.9, 50 mM NaCl, 10 mM KCl, 1.5 mM MgCl2, 10 % glycerol, 0.5 % Triton X-100, 10 mM iodoacetamide); HCT116 cells expressing Flag-GFP-UCH37, with or without 0.2 M sucrose for 30 min; immunoblot

binding: binds
Substance: RAD23B (endogenous) (from UniProt P54727 1-409)
